# Data from patent publication US20240358735A1, “THERAPEUTIC COMPOSITIONS AND RELATED METHODS” (BOYCE THOMPSON INSTITUTE FOR PLANT RESEARCH, INC., priority 2021, published 2024).
# Tested on: Cbr-cest-2 mutants
# Assay: Comparative metabolomics (HPLC-HRMS) of Cbr-cest-2 mutants versus wildtype C. briggsae (AF16)
# Conditions: abundance of the metabolite in Cbr-cest-2 mutants compared to C. briggsae wildtype (AF16)
row,SMILES,"Cbr-cest-2 fold over WT (AF16), average of 4 repeats"
1,CC(C)CC(=O)OCC1OC(OC(=O)c2cccnc2)C(OC(=O)Cc2ccccc2)C(OP(=O)(O)O)C1O (stereo not shown) [nglu#10],0.005458
2,Nc1ccccc1C(=O)C[C@@H]1O[C@H](COC(=O)c2ccc[nH]2)[C@@H](O)[C@H](OP(=O)(O)O)[C@H]1OC(=O)c1ccccc1N [angl#52],0.000376
3,C/C=C(\C)C(=O)O[C@H]1[C@H](Oc2ccc(CCN)cc2)O[C@H](COC(=O)c2ccccc2N)[C@@H](O)[C@@H]1OP(=O)(O)O [tyglu#8],0.0001841
4,CC(C)CC(=O)OC[C@H]1O[C@@H](OC(=O)c2ccccc2N)[C@H](OC(=O)c2cccnc2)[C@@H](OP(=O)(O)O)[C@@H]1O [angl#21],0.007016
5,O=C(OC[C@H]1O[C@@H](n2ccc3ccccc32)[C@H](OC(=O)c2ccccc2)[C@@H](OP(=O)(O)O)[C@@H]1O)c1ccccc1 [iglu#50],9.54E−05
6,NCC(O)c1ccc(C[C@@H]2O[C@H](COC(=O)c3ccc[nH]3)[C@@H](O)[C@H](OP(=O)(O)O)[C@H]2OC(=O)c2ccccc2N)cc1 (stereo partly shown) [oglu#1401],0.01398
7,C/C=C(\C)C(=O)OC1C(OP(=O)(O)O)C(O)C(COC(=O)c2ccccc2)OC1n1ccc2ccccc21 (stereo not shown) [iglu#28],0.01957
8,Nc1ccccc1C(=O)OC[C@H]1O[C@@H](n2ccc3ccccc32)[C@H](OC(=O)c2ccc(O)cc2)[C@@H](CP(=O)(O)O)[C@@H]1O [iglu#75],0.001993
9,Nc1ccccc1C(=O)OCC1OC(n2ccc3ccccc32)C(OC(=O)Cc2ccccc2)C(OP(=O)(O)O)C1O (stereo not shown) [iglu#72],0.001815
10,NCCc1ccc(O[C@@H]2O[C@H](COC(=O)c3ccc(O)cc3)[C@@H](O)[C@H](OP(=O)(O)O)[C@H]2OC(=O)c2ccccc2N)cc1 [tyglu#35],0.002264
11,CC(C)CC(=O)O[C@H]1[C@H](Oc2ccc(CCN)cc2)O[C@H](COC(=O)c2ccccc2N)[C@@H](O)[C@@H]1OP(=O)(O)O [tyglu#14],0.005027
12,CC(C)CC(=O)O[C@@H]1[C@@H](OP(=O)(O)O)[C@H](O)[C@@H](CO)O[C@H]1n1ccc2ccccc21 [iglu#141],0.0001793
13,NCCc1ccc(O[C@@H]2O[C@H](COC(=O)c3ccccc3N)[C@@H](O)[C@H](OP(=O)(O)O)[C@H]2OC(=O)c2ccccc2)cc1 [tyglu#16],0.00004669
14,Nc1ccccc1C(=O)OC[C@H]1O[C@@H](NCCc2ccc(O)cc2)[C@H](OC(=O)c2ccccc2N)[C@@H](OP(=O)(O)O)[C@@H]1O [tyglu#4],0.00001992
15,CC(C)CC(=O)OC[C@H]1O[C@@H](Oc2ccc(CCN)cc2)[C@H](OC(=O)c2ccccc2N)[C@@H](OP(=O)(O)O)[C@@H]1O [tyglu#52],0.0001584
16,CCC(C)C(=O)O[C@H]1[C@H](Oc2ccc(CCN)cc2)O[C@H](CO)[C@@H](O)[C@@H]1OP(=O)(O)O (stereo partly shown) [tyglu#131],0.001614
17,Cn1c(N)nc2c(ncn2C2OC(COC(=O)c3ccccc3)C(O)C(OP(=O)(O)O)C2OC(=O)c2ccccc2)c1=O (stereo not shown) [mgglu#6],0.0002185
18,O=C(OC[C@H]1O[C@@H](n2ccc3cc(O)ccc32)[C@H](OC(=O)c2ccccc2)[C@@H](OP(=O)(O)O)[C@@H]1O)c1cccnc1 [higlu#3],0.0004773
19,NCC(O)c1ccc(C[C@@H]2O[C@H](COC(=O)c3ccccc3)[C@@H](O)[C@H](OP(=O)(O)O)[C@H]2OC(=O)c2cccnc2)cc1 (stereo partly shown) [oglu#24],0.003362
20,C/C=C(\C)C(=O)OC[C@H]1O[C@@H](OC(=O)c2ccccc2)[C@H](O)[C@@H](OP(=O)(O)O)[C@@H]1O [bzglu#201],0.002391
21,Nc1ccccc1C(=O)O[C@@H]1[C@@H](CP(=O)(O)O)[C@H](O)[C@@H](COC(=O)Cc2ccc(O)cc2)O[C@H]1n1ccc2ccccc21 [iglu#86],0.0003456
22,C/C=C(\C)C(=O)O[C@@H]1[C@@H](OP(=O)(O)O)[C@H](O)[C@@H](COC(=O)c2ccccc2N)O[C@H]1n1ccc2ccccc21 [iglu#42],0.008524
23,C/C=C(\C)C(=O)O[C@H]1[C@H](OC(=O)c2ccccc2N)O[C@H](CO)[C@@H](O)[C@@H]1OP(=O)(O)O [angl#601],0.005194
24,Nc1ccccc1C(=O)O[C@@H]1O[C@H](CO)[C@@H](O)[C@H](OP(=O)(O)O)[C@H]1OC(=O)c1ccccc1N [angl#401],0.0005262
25,C/C=C(\C)C(=O)OC[C@H]1O[C@@H](OC(=O)c2ccc[nH]2)[C@H](OC(=O)c2ccccc2)[C@@H](OP(=O)(O)O)[C@@H]1O [pyglu#4],0.003757
26,Nc1ccccc1C(=O)C[C@@H]1O[C@H](COC(=O)c2ccc[nH]2)[C@@H](O)[C@H](OP(=O)(O)O)[C@H]1OC(=O)c1ccccc1N [angl#51],0.003943

row,SMILES,"Cbr-cest-2 fold over WT (AF16), average of 4 repeats"
1,C/C=C(\C)C(O)OC1C(CC(=O)c2ccccc2N)OC(COC(=O)C(N)Cc2ccccc2)C(O)C1OP(=O)(O)O (stereo not shown) [angl#34],0.01495
2,CCC(=O)O[C@H]1[C@H](OC(=O)c2ccccc2N)O[C@H](CO)[C@@H](O)[C@@H]1OP(=O)(O)O [angl#12],0.001398
3,C[C@H](CCC(=O)O[C@H]1[C@H](Oc2ccc(CCN)cc2)O[C@H](CO)[C@@H](O)[C@@H]1OP(=O)(O)O)O[C@@H]1O[C@@H](C)[C@H](O)C[C@H]1O [tyglas#9],0.01907
4,C/C=C(\C)C(=O)O[C@H]1[C@H](Oc2ccc(CCN)cc2)O[C@H](COC(=O)c2ccc[nH]2)[C@@H](O)[C@@H]1OP(=O)(O)O [tyglu#20],0.0006708
5,O=C(OC[C@H]1O[C@@H](n2ccc3ccccc32)[C@H](OC(=O)c2ccccc2)[C@@H](OP(=O)(O)O)[C@@H]1O)c1cccnc1 [iglu#52],0.00003754
6,C/C=C(\C)C(=O)OCC1OC(OC(=O)c2cccnc2)C(OC(=O)c2ccccc2)C(OP(=O)(O)O)C1O (stereo not shown) [nglu#4],0.007247
7,C/C=C(\C)C(=O)O[C@H]1[C@H](Oc2ccc(CCN)cc2)O[C@H](CO)[C@@H](O)[C@@H]1OP(=O)(O)O [tyglu#701],0.00121
8,CC(C)CC(=O)OC1C(OC(=O)c2ccccc2N)OC(CO)C(O)C1OP(=O)(O)O (stereo not shown) [angl#46],0.0002486
9,NCCc1ccc(OC2OC(COC(=O)c3ccccc3N)C(O)C(OP(=O)(O)O)C2OC(=O)C(N)Cc2ccccc2)cc1 (stereo not shown) [tyglu#42],0.0001883
10,C[C@H](CC(=O)OC[C@H]1O[C@@H](Oc2ccc(CCN)cc2)[C@H](OC(=O)c2ccccc2N)[C@@H](OP(=O)(O)O)[C@@H]1O)O[C@@H]1O[C@@H](C)[C@H](O)C[C@H]1O [tyglas#11],0.001146
11,CCCC(=O)OC[C@H]1O[C@@H](n2ccc3ccccc32)[C@H](OC(=O)c2cccnc2)[C@@H](OP(=O)(O)O)[C@@H]1O [iglu#92],0.001118
12,Nc1ccccc1C(=O)OCC1OC(n2ccc3ccccc32)C(OC(=O)c2ccccc2)C(CP(=O)(O)O)C1O (stereo not shown) [iglu#90],0.002597
13,Nc1ccccc1C(=O)OCC1OC(n2ccc3ccccc32)C(OC(=O)c2ccccc2)C(OP(=O)(O)O)C1O (stereo not shown) [iglu#66],0.01239
14,NCCc1ccc(O[C@@H]2O[C@H](COC(=O)c3ccccc3)[C@@H](O)[C@H](OP(=O)(O)O)[C@H]2OC(=O)c2ccccc2)cc1 [tyglu#32],0.001228
15,CCCC(=O)OC[C@H]1O[C@@H](n2ccc3ccccc32)[C@H](OC(=O)c2ccccc2N)[C@@H](OP(=O)(O)O)[C@@H]1O [iglu#84],0.0001773
16,Nc1ccccc1C(=O)C[C@@H]1O[C@H](COC(=O)c2ccc(O)cc2)[C@@H](O)[C@H](OP(=O)(O)O)[C@H]1OC(=O)c1ccc(O)cc1 [angl#47],0.0005489
17,CC(C)CC(=O)OC[C@H]1O[C@@H](OC(=O)c2ccccc2N)[C@H](OC(=O)c2cccnc2)[C@@H](OP(=O)(O)O)[C@@H]1O [angl#19],0.0004475
18,NCCc1ccc(O[C@@H]2O[C@H](COC(=O)c3ccc[nH]3)[C@@H](O)[C@H](OP(=O)(O)O)[C@H]2OC(=O)c2cccnc2)cc1 [tyglu#30],0.002985
19,CC(O)CC(=O)OC[C@H]1O[C@@H](CC(=O)c2ccccc2N)[C@H](OC(=O)c2ccccc2N)[C@@H](OP(=O)(O)O)[C@@H]1O (stereo partly shown) [angl#44],0.0006083
20,Nc1ccccc1C(=O)O[C@@H]1O[C@H](COC(=O)c2cccnc2)[C@@H](O)[C@H](OP(=O)(O)O)[C@H]1OC(=O)c1ccc[nH]1 [angl#24],0.00008011
21,Nc1ccccc1C(=O)O[C@@H]1O[C@H](COC(=O)c2cccnc2)[C@@H](O)[C@H](OP(=O)(O)O)[C@H]1OC(=O)c1ccccc1 [angl#27],3.68E−05
22,NCCc1ccc(O[C@@H]2O[C@H](CO)[C@@H](O)[C@H](OP(=O)(O)O)[C@H]2OC(=O)c2cccnc2)cc1 [tyglu#501],0.00188
23,CCC/C=C/C=C\C=C\C(=O)OC[C@H]1O[C@@H](Oc2ccc(CCN)cc2)[C@H](OC(=O)c2ccccc2N)[C@@H](OP(=O)(O)O)[C@@H]1O [tyglu#50],0.002938
24,Nc1ccccc1C(=O)OC[C@H]1O[C@@H](CC(=O)c2ccc(O)cc2)[C@H](OC(=O)c2ccc(O)cc2)[C@@H](OP(=O)(O)O)[C@@H]1O [angl#48],0.0004702
25,NCCc1ccc(O[C@@H]2O[C@H](COC(=O)Cc3ccc(O)cc3)[C@@H](O)[C@H](OP(=O)(O)O)[C@H]2OC(=O)c2ccccc2N)cc1 [tyglu#37],0.0002348
26,CCC(=O)OC1C(OP(=O)(O)O)C(O)C(COC(=O)c2cccnc2)OC1n1ccc2ccccc21 (stereo not shown) [iglu#21],0.00222
